Read-outs that look alike come from different tables or passages of the source. Results are given in words; binding and its absence hold for the method and conditions named. Binding seen in cells or lysates may run through a third protein. Some binding calls cover weakened binding; strength is not graded here. For some assays here: Tags and fused reporters may be left off the sequences shown.
T1: endogenous BICC1 of mIMCD3 cells (mouse (endogenous in mIMCD3)) (UniProt Q99MQ1)
T1 sequence: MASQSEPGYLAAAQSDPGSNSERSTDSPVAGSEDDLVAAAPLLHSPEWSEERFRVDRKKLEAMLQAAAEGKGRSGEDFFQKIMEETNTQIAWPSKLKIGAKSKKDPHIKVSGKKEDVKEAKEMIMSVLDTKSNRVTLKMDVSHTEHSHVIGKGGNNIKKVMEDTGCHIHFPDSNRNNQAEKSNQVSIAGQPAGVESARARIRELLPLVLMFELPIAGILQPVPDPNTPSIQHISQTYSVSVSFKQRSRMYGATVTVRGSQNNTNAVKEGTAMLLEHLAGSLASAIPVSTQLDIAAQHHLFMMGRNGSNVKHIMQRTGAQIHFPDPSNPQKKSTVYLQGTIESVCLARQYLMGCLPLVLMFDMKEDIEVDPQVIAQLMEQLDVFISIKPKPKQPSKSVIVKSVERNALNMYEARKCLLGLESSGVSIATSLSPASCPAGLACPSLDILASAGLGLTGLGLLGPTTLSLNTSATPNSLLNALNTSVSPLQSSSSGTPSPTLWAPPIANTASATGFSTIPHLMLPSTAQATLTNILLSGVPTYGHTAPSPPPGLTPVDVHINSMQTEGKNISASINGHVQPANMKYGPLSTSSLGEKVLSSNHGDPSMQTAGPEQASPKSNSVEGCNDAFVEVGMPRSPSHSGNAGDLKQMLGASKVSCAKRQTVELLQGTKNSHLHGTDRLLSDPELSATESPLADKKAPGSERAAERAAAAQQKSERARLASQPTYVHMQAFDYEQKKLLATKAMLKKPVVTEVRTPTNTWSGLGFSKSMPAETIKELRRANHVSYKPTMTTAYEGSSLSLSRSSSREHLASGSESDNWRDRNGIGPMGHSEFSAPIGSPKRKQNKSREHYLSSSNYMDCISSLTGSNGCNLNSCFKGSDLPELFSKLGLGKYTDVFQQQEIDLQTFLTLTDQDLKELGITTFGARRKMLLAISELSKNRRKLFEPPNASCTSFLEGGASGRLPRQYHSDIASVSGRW

Amino acid sequences for entries named in this document (tags omitted).
UniProt Q8CJG0: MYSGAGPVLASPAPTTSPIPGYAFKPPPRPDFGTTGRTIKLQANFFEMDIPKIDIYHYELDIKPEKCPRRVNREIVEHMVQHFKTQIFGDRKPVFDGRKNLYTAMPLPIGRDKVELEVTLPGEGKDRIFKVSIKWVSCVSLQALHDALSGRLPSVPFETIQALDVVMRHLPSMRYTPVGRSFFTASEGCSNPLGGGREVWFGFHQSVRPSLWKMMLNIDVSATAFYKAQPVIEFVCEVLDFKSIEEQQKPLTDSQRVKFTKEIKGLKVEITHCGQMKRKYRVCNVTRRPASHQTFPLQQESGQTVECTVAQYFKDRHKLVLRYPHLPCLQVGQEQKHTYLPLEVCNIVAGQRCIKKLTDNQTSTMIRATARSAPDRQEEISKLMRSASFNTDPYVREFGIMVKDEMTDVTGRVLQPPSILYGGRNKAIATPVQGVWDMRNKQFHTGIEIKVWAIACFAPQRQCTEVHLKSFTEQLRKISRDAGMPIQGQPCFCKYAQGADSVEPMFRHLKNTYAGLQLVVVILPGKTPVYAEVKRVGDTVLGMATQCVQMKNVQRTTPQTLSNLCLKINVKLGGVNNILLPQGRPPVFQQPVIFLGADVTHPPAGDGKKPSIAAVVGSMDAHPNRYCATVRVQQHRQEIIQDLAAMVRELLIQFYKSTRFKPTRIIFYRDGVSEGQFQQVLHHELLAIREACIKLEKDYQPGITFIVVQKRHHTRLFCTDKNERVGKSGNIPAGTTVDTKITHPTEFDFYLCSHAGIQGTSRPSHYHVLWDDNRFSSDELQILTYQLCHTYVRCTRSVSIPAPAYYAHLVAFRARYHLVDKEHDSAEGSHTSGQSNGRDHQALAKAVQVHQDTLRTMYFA

B1: human WT ANKS3-GFP fusion (protein, UniProt Q6ZW76-1 1-656)
chain: MSELSDEASEPELLNRSLSMWHGLGTQVSGEELDVPLDLHTAASIGQYEVVKECVQRRELDLNKKNGGGWTPLMYASYIGHDTIVHLLLEAGVSVNVPTPEGQTPLMLASSCGNESIAYFLLQQGAELEMKDIQGWTALFHCTSAGHQHMVRFLLDSGANANVREPICGFTPLMEAAAAGHEIIVQYFLNHGVKVDARDHSGATARMLAKQYGHMKIVALMDTYSPSLPKSLYRSPEKYEDLSSSDESCPAPQRQRPCRKKGVSIHEGPRALARITGIGLGGRAPRPRYEQAPPRGYVTFNSSGENPLEEEGLCCRDVTSPINERDVESSSSSSSREEHAFCANLGPVQSSSSSEGLARAQGLSSEASVESNEDSDHACKSSARKQAKSYMKTKNPDSQWPPRAATDREGFLAESSPQTQRAPYSGPQDLAALLEQIGCLKYLQVFEEQDVDLRIFLTLTESDLKEIGITLFGPKRKMTSAIARWHSSARPPGDALELAYADRLEAEMQELAIQLHKRCEEVEATRGQVCQEQELRAVVESCLLEQDRAREDLQARLRETWALARDAALVLDQLRACQAELSSRVRQDQPPGAATLGLAVPPADSKGWQASLQAMSLPELSGALEDRVREMGQALCLVTQSLEKLQVLNGKKWRET

Key:
[1] = target: T1, endogenous BICC1 of mIMCD3 cells (mouse (endogenous in mIMCD3)); experiment: co-IP
[2] = target: T1, endogenous BICC1 of mIMCD3 cells (mouse (endogenous in mIMCD3)); experiment: co-IP; remark: listed apart in the source

Molecule	binding [1]	binding [2]
endogenous AGO2 of mIMCD3 cells (from UniProt Q8CJG0 1-860)	binds	–
B1	–	binds
